Patent publication US20080219971A1
Results are given in words; binding and its absence hold for the method and conditions named. Some entries that bind do so weakly or less than the wild type. For some of these results: Sequences can lack the tags named with a protein.

T1: human CD100-Fc (human) (UniProt Q92854)
T1 sequence (looked up): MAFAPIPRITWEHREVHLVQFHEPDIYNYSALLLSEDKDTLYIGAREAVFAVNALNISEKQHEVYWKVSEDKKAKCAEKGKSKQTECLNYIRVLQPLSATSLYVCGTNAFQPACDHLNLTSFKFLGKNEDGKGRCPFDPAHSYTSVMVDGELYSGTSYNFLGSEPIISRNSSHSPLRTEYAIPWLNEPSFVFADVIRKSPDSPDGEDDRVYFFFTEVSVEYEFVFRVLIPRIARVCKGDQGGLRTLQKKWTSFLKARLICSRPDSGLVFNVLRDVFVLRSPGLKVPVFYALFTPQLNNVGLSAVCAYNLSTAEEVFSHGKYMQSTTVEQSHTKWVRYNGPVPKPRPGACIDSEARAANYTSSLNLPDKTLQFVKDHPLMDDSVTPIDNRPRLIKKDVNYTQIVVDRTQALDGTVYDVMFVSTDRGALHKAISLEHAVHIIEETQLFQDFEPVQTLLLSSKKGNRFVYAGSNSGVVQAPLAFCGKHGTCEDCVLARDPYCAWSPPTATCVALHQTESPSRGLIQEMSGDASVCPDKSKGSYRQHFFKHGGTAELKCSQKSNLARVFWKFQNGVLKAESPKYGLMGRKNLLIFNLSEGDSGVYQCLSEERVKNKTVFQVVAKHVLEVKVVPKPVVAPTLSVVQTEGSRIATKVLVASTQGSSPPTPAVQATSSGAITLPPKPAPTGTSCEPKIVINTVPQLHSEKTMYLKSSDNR

T2: human CD100-His (human) (UniProt Q92854)
T2 sequence (looked up): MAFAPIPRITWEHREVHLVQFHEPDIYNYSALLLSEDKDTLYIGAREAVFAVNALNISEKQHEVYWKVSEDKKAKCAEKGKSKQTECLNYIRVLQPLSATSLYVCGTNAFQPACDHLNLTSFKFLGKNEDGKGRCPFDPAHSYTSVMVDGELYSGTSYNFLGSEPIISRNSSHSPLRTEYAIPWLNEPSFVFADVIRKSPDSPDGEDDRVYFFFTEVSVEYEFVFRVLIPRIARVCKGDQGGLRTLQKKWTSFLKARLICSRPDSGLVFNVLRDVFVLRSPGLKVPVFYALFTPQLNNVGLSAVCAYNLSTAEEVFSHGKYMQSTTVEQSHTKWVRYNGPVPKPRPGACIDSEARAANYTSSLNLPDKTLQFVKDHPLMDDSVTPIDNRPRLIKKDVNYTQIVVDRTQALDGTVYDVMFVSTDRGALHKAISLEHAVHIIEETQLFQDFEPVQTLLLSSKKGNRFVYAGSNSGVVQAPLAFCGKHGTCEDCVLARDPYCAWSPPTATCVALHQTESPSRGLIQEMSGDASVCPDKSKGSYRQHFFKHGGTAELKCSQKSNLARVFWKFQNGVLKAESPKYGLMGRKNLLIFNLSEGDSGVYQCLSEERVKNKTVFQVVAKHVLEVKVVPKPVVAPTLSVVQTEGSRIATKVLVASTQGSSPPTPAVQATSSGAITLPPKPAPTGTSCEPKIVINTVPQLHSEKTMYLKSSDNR

T3: CD100-AP (Homo sapiens (Human)) (UniProt Q92854)
T3 sequence: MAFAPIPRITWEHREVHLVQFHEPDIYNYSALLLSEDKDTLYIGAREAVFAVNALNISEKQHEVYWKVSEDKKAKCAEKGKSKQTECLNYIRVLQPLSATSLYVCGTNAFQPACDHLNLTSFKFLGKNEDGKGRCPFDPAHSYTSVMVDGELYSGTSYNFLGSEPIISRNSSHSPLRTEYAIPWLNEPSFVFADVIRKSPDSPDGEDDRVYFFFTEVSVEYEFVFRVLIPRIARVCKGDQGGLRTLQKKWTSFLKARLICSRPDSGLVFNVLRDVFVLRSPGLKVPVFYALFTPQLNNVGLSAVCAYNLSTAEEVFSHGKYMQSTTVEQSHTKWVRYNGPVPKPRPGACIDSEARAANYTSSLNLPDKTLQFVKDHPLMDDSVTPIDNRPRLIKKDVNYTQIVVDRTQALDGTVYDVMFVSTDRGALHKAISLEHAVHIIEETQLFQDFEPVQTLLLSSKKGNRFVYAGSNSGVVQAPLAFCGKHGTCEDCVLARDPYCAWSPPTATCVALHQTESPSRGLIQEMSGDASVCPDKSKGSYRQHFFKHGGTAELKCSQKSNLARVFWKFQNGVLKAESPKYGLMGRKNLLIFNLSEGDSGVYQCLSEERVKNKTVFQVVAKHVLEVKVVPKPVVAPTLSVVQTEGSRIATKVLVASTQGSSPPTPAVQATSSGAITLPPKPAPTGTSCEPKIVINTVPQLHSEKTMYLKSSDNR

B1: MAb 301 (antibody, human IgG1, V domains shown)
VH: EVQLQQSGPELVKPGASVKMSCKASGYTFTDYYMDWVKQSHGESFEWIGRVNPYHGGATYNQKFKGKATLTVDKSSRTAYMELNSLTYEDSAVYYCAREENSYDGYYGMDYWGQGTTVTVSS
VL: DIVLTQSPSSLSVSAGEKVTMDCKSSQSLFNSGNQKNYLAWYHQKPGQPPKLLIYGASTRESGVPDRFTGSGSGTDFTLTISSVQAEDLAVYYCQNDHTYPYTFGGGTKLEIK
B2: BD16 (antibody, V domains shown)
VH: EVQLQQSGPELVKPGASVKMSCKASGYTFTDYYMDWVKQSHGESFEWIGRVNPYHGGATYNQKFKGKATLTVDKSSRTAYMELNSLTYEDSAVYYCAREENSYDGYYGMDYWGQGTTVTVSS
VL: DIVLTQSPSSLSVSAGEKVTMDCKSSQSLFNSGNQKNYLAWYHQKPGQPPKLLIYGASTRESGVPDRFTGSGSGTDFTLTISSVQAEDLAVYYCQNDHTYPYTFGGGTKLEIK
B3: MAb 1808 (antibody, human IgG4, V domains shown)
VH: QVQLVQSGAEVKKPGSSVKVSCKASGYTFTDYYMDWVRQAPGQGLEWMGRVNPYHGGATYNQKFKGRVTITADKSTSTAYMELSSLRSEDTAVYYCAREENSYDGYYGMDYWGQGTLVTVSS
VL: DIVMTQSPLSLPVSPGEPATINCKSSQSLFNSGNQKNYLAWYLQKPGQPPKLLIYGASTRESGVPDRFSGSGSGTDFTLTISSLQAEDVAVYYCQNDHTYPYTFGQGTKLEIK
B4: MAb 657 (antibody, human IgG1, V domains shown)
VH: QVQLVQSGAEVKKPGSSVKVSCKASGYTFTDYYMDWVRQAPGQGLEWIGRVNPYHGGATYNQKFKGKATITVDKSTSTAYMELSSLRSEDTAVYYCAREENSYDGYYGMDYWGQGTLVTVSS
VL: DIVMTQSPLSLPVSPGEPATINCKSSQSLFNSGNQKNYLAWYLQKPGQPPKLLIYGASTRESGVPDRFSGSGSGTDFTLTISSLQAEDVAVYYCQNDHTYPYTFGQGTKLEIK
B5: MAb 1656 (antibody, human IgG1, V domains shown)
VH: QVQLVQSGAEVKKPGSSVKVSCKASGYTFTDYYMDWVRQAPGQGLEWMGRVNPYHGGATYNQKFKGRVTITADKSTSTAYMELSSLRSEDTAVYYCAREENSYDGYYGMDYWGQGTLVTVSS
VL: DIVMTQSPLSLPVSPGEPATINCKSSQSLFNSGNQKNYLAWYLQKPGQPPKLLIYGASTRESGVPDRFSGSGSGTDFTLTISSLQAEDVAVYYCQNDHTYPYTFGQGTKLEIK
B6: MAb 1807 (antibody, human IgG4, V domains shown)
VH: QVQLVQSGAEVKKPGSSVKVSCKASGYTFTDYYMDWVRQAPGQGLEWIGRVNPYHGGATYNQKFKGKATITVDKSTSTAYMELSSLRSEDTAVYYCAREENSYDGYYGMDYWGQGTLVTVSS
VL: DIVMTQSPLSLPVSPGEPATINCKSSQSLFNSGNQKNYLAWYLQKPGQPPKLLIYGASTRESGVPDRFSGSGSGTDFTLTISSLQAEDVAVYYCQNDHTYPYTFGQGTKLEIK

What was measured:
[1] = biological target: T1, human CD100-Fc (human); assay: ELISA
[2] = biological target: T1, human CD100-Fc (human); assay: ELISA on CD100-Fc antigen
[3] = biological target: T2, human CD100-His (human); assay: blocking of CD100-His (20 ng) binding to Plexin B1 on 293/Plexin B1 cells after preincubation with the antibody, flow cytometry
[4] = biological target: T1, human CD100-Fc (human); assay: competition ELISA on coated CD100-Fc; BD16 pre-bound
[5] = biological target: T1, human CD100-Fc (human); assay: competition ELISA on CD100-Fc: BD16 titrated against 5 ng/ml MAb 657, bound MAb 657 detected with anti-human Kappa HRP [FIG. 4B]
[6] = biological target: T3, CD100-AP (Homo sapiens (Human)); assay: blocking of CD100-AP (20 ng) binding to Plexin B1 on 293/Plexin B1 cells after preincubation with the antibody, flow cytometry
[7] = biological target: T1, human CD100-Fc (human); assay: competition ELISA on CD100-Fc: BD16 titrated against 5 ng/ml MAb 301, bound MAb 301 detected with anti-human Kappa HRP [FIG. 4B]
[8] = biological target: T3, CD100-AP (Homo sapiens (Human)); assay: blocking of CD100-AP binding to Plexin B1 on COS/Plexin B1 cells after preincubation with the antibody, alkaline phosphatase staining; concentration not shown

Row | Binder | binding [1] | binding [2] | binding [3] | binding [6] | binding [8] | also measured
1 | B1 | binds | binds |  |  |  | 
2 | B2 |  |  | binds | binds | binds | binding [4]: binds; binding [5]: binds; binding [7]: binds
3 | B3 | binds |  | binds | binds | binds | 
4 | B4 | binds | binds |  |  |  | 
5 | B5 | binds |  |  |  |  | 
6 | B6 | binds |  |  |  |  | 
